In the supplement of paper PMC6411743:
± gives the standard deviation of the averaged measurements. This is one part of the list.

Sequences of proteins named here, by UniProt entry; tags and fusion partners are left off. A change or cut given only in a name is not applied to a line headed by its entry.
UniProt Q9UI14, whole entry: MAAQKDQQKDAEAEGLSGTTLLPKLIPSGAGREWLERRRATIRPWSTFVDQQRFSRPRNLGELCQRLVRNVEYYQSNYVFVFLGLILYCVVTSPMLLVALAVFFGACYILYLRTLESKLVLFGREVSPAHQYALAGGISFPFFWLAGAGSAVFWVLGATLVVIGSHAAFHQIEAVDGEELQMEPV
UniProt O14646: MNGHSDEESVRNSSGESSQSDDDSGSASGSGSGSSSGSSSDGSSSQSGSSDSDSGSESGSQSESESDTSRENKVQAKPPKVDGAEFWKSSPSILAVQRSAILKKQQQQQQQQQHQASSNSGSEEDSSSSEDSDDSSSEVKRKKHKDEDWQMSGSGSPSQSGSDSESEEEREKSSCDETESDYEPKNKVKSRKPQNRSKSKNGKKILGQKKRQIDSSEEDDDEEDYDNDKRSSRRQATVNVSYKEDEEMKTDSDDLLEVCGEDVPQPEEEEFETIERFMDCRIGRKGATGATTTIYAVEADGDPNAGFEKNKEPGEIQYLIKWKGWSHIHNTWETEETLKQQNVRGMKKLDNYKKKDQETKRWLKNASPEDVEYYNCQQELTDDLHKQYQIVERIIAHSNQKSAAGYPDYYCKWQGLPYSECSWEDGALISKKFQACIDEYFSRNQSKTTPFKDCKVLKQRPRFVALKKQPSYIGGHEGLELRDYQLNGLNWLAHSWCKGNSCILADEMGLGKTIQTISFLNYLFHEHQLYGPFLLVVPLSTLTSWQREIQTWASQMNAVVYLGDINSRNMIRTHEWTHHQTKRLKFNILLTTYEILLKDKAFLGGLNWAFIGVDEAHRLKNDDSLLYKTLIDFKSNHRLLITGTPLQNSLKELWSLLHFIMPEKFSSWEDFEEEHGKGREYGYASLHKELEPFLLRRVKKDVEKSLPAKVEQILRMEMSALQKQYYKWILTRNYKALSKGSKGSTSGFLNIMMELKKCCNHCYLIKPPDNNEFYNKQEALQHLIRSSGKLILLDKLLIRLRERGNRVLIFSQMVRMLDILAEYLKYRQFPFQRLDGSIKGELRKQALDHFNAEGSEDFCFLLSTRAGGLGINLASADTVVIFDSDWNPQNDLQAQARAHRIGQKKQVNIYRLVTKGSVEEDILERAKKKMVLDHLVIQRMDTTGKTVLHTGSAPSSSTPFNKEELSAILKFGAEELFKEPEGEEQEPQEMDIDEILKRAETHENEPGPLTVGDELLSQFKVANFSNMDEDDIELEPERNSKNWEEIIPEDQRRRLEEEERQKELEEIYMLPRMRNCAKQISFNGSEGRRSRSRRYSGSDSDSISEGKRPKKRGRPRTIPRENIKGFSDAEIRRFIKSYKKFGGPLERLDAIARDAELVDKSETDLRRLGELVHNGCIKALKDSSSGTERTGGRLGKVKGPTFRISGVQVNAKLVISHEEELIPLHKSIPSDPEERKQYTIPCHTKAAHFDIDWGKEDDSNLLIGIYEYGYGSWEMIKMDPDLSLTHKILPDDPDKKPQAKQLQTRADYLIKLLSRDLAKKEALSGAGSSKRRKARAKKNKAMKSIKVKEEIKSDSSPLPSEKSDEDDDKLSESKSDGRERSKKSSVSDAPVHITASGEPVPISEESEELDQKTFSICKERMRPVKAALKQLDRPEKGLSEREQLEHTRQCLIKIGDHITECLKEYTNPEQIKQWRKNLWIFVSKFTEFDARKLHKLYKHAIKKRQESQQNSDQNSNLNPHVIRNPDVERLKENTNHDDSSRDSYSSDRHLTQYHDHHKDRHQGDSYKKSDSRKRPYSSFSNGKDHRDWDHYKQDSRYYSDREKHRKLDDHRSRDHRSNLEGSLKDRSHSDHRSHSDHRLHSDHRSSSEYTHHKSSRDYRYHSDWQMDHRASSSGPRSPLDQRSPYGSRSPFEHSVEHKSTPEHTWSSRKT
UniProt Q9NP81: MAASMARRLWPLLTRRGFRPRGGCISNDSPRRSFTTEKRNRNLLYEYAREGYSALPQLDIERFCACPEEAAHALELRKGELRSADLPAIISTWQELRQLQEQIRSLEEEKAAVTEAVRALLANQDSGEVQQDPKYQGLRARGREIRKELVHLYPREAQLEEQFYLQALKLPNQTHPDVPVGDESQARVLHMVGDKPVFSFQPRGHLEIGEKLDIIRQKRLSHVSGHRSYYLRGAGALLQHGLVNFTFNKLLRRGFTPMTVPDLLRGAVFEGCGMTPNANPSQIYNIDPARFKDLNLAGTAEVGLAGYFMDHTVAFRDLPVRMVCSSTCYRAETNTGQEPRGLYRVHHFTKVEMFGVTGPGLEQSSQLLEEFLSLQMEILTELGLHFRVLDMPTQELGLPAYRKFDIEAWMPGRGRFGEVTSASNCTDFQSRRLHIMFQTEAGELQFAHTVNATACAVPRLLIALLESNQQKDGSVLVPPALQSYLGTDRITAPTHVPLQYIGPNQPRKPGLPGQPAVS
UniProt O14579: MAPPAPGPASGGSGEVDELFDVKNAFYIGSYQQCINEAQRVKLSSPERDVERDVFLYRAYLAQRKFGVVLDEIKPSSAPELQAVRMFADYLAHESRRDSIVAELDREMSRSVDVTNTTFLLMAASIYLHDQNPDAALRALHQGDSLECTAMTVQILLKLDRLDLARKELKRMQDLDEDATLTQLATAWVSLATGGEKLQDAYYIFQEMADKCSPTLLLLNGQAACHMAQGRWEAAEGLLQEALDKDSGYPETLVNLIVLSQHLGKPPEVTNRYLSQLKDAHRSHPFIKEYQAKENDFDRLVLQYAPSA
UniProt O00151: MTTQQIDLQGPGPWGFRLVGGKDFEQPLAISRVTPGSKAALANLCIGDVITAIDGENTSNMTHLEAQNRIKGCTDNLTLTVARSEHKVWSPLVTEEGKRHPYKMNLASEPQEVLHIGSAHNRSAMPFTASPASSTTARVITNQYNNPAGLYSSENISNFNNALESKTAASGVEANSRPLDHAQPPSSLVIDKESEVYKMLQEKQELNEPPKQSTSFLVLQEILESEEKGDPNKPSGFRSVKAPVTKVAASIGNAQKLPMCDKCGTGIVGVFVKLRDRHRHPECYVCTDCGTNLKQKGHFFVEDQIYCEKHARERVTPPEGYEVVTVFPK

Compound: Nc1nc2c(ncn2[C@@H]2O[C@H](COP(=O)(O)OP(=O)(O)OP(=O)(O)O)[C@@H](O)[C@H]2O)c(=O)[nH]1 [guanosine triphosphate]
Assay: NP40-soluble protein abundance relative to vehicle (solubility fold change) (ratio); higher = more soluble protein in presence of GTP
Method: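 Solubility proteome profiling in Jurkat crude lysate. Lysate was treated with Mg-GTP (0.1-10 mM) for 10 min at room temperature and 3 min at 37 °C, then solubilised with 0.8% NP40 and benzonase, followed by ultracentrifugation. Proteins were quantified by TMT10 LC-MS/MS; the value is the NP40-soluble abundance relative to the NP40-processed vehicle, from 3 independent experiments.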

Target	NP40-soluble protein abundance (concentration: 0.1mM)	NP40-soluble protein abundance (concentration: 0.5mM)	NP40-soluble protein abundance (concentration: 1mM)	NP40-soluble protein abundance (concentration: 2mM)	NP40-soluble protein abundance (concentration: 4mM)	NP40-soluble protein abundance (concentration: 6mM)	NP40-soluble protein abundance (concentration: 8mM)	NP40-soluble protein abundance (concentration: 10mM)
M0R3D4 and related entries (UniProt Q9UI14)	1.05 ± 0.14	0.97 ± 0.0098	0.949 ± 0.049	0.858 ± 0.08	0.88225 ± 0.0001	0.847 ± 0.0022	0.871 ± 0.027	0.846 ± 0.013
UniProt O14646 and related entries	1 ± 0.041	0.968 ± 0.067	0.97 ± 0.14	1.03 ± 0.13	1.08 ± 0.12	1.16 ± 0.14	1.22 ± 0.12	1.41 ± 0.074
M0QWZ7 and related entries (UniProt Q9NP81)	1.04 ± 0.024	1.02 ± 0.014	0.9937 ± 0.0095	1.01 ± 0.015	1.01 ± 0.013	0.991 ± 0.034	1.01 ± 0.028	0.9723 ± 0.0047
M0QXB4 and related entries (UniProt O14579)	1.01 ± 0.049	0.968 ± 0.04	1.07 ± 0.075	1.05 ± 0.055	1.09 ± 0.081	1.02 ± 0.059	1.04 ± 0.056	1.02 ± 0.038
PDLIM1 (UniProt O00151)	0.942 ± 0.043	0.918 ± 0.057	0.948 ± 0.037	0.887 ± 0.073	0.905 ± 0.067	0.898 ± 0.092	0.93 ± 0.063	0.884 ± 0.061
